The values that follow come from ChEMBL document CHEMBL5608208, “Design, synthesis of griseofamine A derivatives and development of potent antibacterial agents against MRSA” (Eur J Med Chem, 2024).

In brackets after ≈: the same amount, converted by molar mass.

In one experiment the test system is Bacillus subtilis. As to the kind of experiment: Antibacterial activity against Bacillus subtilis CMCC 63501 incubated for 18 hrs by serial two-fold dilution method. It is filed as functional.
In a further experiment the test system is Enterococcus faecium. As to the kind of experiment: Antibacterial activity against Enterococcus faecium ATCC 700221 incubated for 18 hrs by serial two-fold dilution method. In kind it is functional.

Consider `CN[C@H](CC(C)C)C(=O)N[C@H]1C(=O)N[C@@H](CC(N)=O)C(=O)N[C@H]2C(=O)N[C@H]3C(=O)N[C@H](C(=O)N[C@H](C(=O)O)c4cc(O)cc(O)c4-c4cc3ccc4O)[C@H](O)c3ccc(c(Cl)c3)Oc3cc2cc(c3O[C@@H]2O[C@H](CO)[C@@H](O)[C@H](O)[C@H]2O[C@H]2C[C@](C)(N)[C@H](O)[C@H](C)O2)Oc2ccc(cc2Cl)[C@H]1O` [VANCOMYCIN], for which the MIC against Bacillus subtilis turned out to be 0.23 µg/mL (≈ 0.159 µM); with Enterococcus faecium, 3.5 µg/mL (≈ 2.42 µM).
